Laboratory results taken from US20230044268A1 (SHILPA MEDICARE LIMITED, priority 2019, published 2023).

Test: general procedure: Fmoc solid-phase peptide synthesis; Wang resin (Fmoc-Gly-Wang resin, substitution 0.40 to 0.75 mmol/g); DIC/Oxymapure (DMAP for resin loading)
Details: whole synthesis, analytical HPLC, scale of the general procedure 10-gram Fmoc-Gly-Wang resin

Liraglutide
final HPLC purity: 99.5%
